PMC9097460, “The molecular basis of spinocerebellar ataxia type 48 caused by a de novo mutation in the ubiquitin ligase CHIP” (The Journal of Biological Chemistry, 2022)
These are yes or no findings as the source states them, for the method shown. Some entries that bind do so weakly or less than the wild type.

Target: T1, C terminus of Hsc70 interacting protein (CHIP), wild type, recombinant (human), Q9UNE7
T1 chain: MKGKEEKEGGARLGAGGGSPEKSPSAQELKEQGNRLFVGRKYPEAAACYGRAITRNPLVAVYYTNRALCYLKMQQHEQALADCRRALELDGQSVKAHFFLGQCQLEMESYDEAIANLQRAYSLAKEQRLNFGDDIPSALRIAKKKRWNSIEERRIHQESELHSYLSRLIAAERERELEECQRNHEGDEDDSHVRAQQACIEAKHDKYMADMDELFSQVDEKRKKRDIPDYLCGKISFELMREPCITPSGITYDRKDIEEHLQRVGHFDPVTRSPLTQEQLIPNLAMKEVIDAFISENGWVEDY
Assay: SEC + other: mass photometry; recombinant CHIP run on size-exclusion chromatography, fractions analysed by mass photometry at 30 nM in 20 mM Hepes pH 8, 200 mM NaCl, 1 mM DTT; both purified
Details: remark: other sources report otherwise

B1: C terminus of Hsc70 interacting protein (CHIP), wild type, recombinant, Q9UNE7 1-303 (enzyme)
chain: MKGKEEKEGGARLGAGGGSPEKSPSAQELKEQGNRLFVGRKYPEAAACYGRAITRNPLVAVYYTNRALCYLKMQQHEQALADCRRALELDGQSVKAHFFLGQCQLEMESYDEAIANLQRAYSLAKEQRLNFGDDIPSALRIAKKKRWNSIEERRIHQESELHSYLSRLIAAERERELEECQRNHEGDEDDSHVRAQQACIEAKHDKYMADMDELFSQVDEKRKKRDIPDYLCGKISFELMREPCITPSGITYDRKDIEEHLQRVGHFDPVTRSPLTQEQLIPNLAMKEVIDAFISENGWVEDY
binding: binds
